# Measurements taken from PubChem BioAssay AID330 (DTP/NCI, 2004).
# The list is a part of this screen's results and no random one: it is rich in T/C values a quarter to a half above the control, in often repeated tests (any T/C) and in doses without a T/C. Other doses and runs of a compound stand elsewhere. T/C: endpoint of the treated group in % of that of the vehicle group. Some doses have a count of surviving animals in place of a T/C: the source files T/C as zero there, which appears to mark a toxic dose or a test without result, not a measured value. Some doses without a T/C left all or most animals alive at the check, yet need not have been tolerated: the source hardly ever lists a survival T/C far under the control, and the zero likely stands for such cases as well. Survivors were counted at the toxicity check, usually on the fifth day, unless a day is given; later deaths do not show. Schedules are NCI's codes, taken here to give the interval after Q, in days (D) or hours (H), and the number of doses after X. For survival time, the PubChem record calls one and a half times the control and up active, and a quarter to a half above the control has no call in these data; cut-offs in other NCI protocols can differ. Some entries hold several experiments; their values stand side by side, smallest first. Some T/C values are followed by the survivors on the day toxicity was checked, most often the fifth; where none is given, no animal had died by that day.
# Tested on: P388 leukemia ip, CD2F1 mice, survival T/C
# Experiment: NCI In Vivo Anticancer Drug Screen. Data for tumor model P388 Leukemia (intraperitoneal) in CD2F1 (CDF1) mice
# Details: T/C endpoint: median survival time, higher T/C = longer survival
# [1] = dose: 200.0 mg/kg/injection, schedule: Q01DX005 (ip), vehicle: Klucel (hydroxypropylcellulose) (HPC)
# [2] = dose: 400.0 mg/kg/injection, schedule: Q01DX001 (ip), vehicle: saline with Tween-80
# [3] = dose: 25.0 mg/kg/injection, schedule: Q01DX005 (ip), vehicle: Klucel (hydroxypropylcellulose) (HPC)
# [4] = dose: 50.0 mg/kg/injection, schedule: Q01DX005 (ip), vehicle: Klucel (hydroxypropylcellulose) (HPC)
# [5] = dose: 200.0 mg/kg/injection, schedule: Q01DX005 (ip), vehicle: saline with Tween-80
smiles,measurement,setting,value
Nc1ccn(C2OC(CCl)C(O)C2O)c(=O)n1 (stereo unspecified),T/C,"dose: 25.0 mg/kg/injection, schedule: Q01DX009 (ip), vehicle: Klucel (hydroxypropylcellulose) (HPC)",131 % of control
same,T/C,"dose: 25.0 mg/kg/injection, schedule: Q01DX009 (ip), vehicle: saline",126 % of control
same,T/C,"dose: 50.0 mg/kg/injection, schedule: Q01DX009 (ip), vehicle: Klucel (hydroxypropylcellulose) (HPC)",146 % of control
same,T/C,"dose: 50.0 mg/kg/injection, schedule: Q01DX009 (ip), vehicle: saline",137 % of control
CNP1(NC)=N[P@@](NC)(N2CC2)=NP(NC)(N2CC2)=N1 (stereo partly specified),T/C,"dose: 3.75 mg/kg/injection, schedule: Q01DX005 (ip), vehicle: saline",125 and 148 % of control
same,survivor count,"dose: 60.0 mg/kg/injection, schedule: Q01DX005 (ip), vehicle: saline",6 of 6
same,survivor count,"dose: 120.0 mg/kg/injection, schedule: Q01DX005 (ip), vehicle: saline",6 of 6
same,survivor count,"dose: 240.0 mg/kg/injection, schedule: Q01DX005 (ip), vehicle: saline",1 of 6
CCOC1CC(C)(O)Cc2cc3c(c(O)c21)C(=O)c1c(O)cc2c(c1C3=O)OC1OC2(C)C(O)C(N(C)C)C1O (stereo unspecified),T/C,"dose: 0.84 mg/kg/injection, schedule: Q01DX009 (ip), vehicle: other",125 % of control
same,T/C,"dose: 1.25 mg/kg/injection, schedule: Q01DX009 (ip), vehicle: other",141 and 142 % of control
same,T/C,"dose: 1.68 mg/kg/injection, schedule: Q01DX009 (ip), vehicle: other",137 % of control
same,survivor count,"dose: 20.0 mg/kg/injection, schedule: Q01DX009 (ip), vehicle: other",6 of 6
same,survivor count,"dose: 26.0 mg/kg/injection, schedule: Q01DX009 (ip), vehicle: other",4 of 6
OCCN=Cc1ccccc1O.OCCN=Cc1ccccc1O.[Cu],survivor count,"dose: 100.0 mg/kg/injection, schedule: Q01DX005 (ip), vehicle: Klucel (hydroxypropylcellulose) (HPC)",1 of 6
same,survivor count,[1],0 of 6
Fc1c(F)c(F)c(SN=S=Nc2ccccc2)c(F)c1F,survivor count,[1],6 of 6
C=CC1CCC[S+]1CC(=O)C(Cl)(Cl)Cl (stereo unspecified),survivor count,[2],0 of 6
COc1cc(NC(C)CCCN)c2ncc(Br)cc2c1 (stereo unspecified),survivor count,"dose: 25.0 mg/kg/injection, schedule: Q01DX005 (ip), vehicle: saline",2 of 6
same,survivor count,"dose: 50.0 mg/kg/injection, schedule: Q01DX005 (ip), vehicle: saline",4 of 6
same,survivor count,"dose: 100.0 mg/kg/injection, schedule: Q01DX005 (ip), vehicle: saline",1 of 6
same,survivor count,"dose: 200.0 mg/kg/injection, schedule: Q01DX005 (ip), vehicle: saline",0 of 6
COC(=O)[C@@]12OC[C@]34[C@H]([C@@H](O)[C@@H]1O)[C@@]1(C)CC(=O)C(O)=C(C)[C@@H]1C[C@H]3OC(=O)[C@H](OC(=O)C(Cc1ccccc1)NC(=O)OC(C)(C)C)[C@@H]24 (stereo partly specified),T/C,"dose: 0.5 mg/kg/injection, schedule: Q01DX005 (ip), vehicle: Klucel (hydroxypropylcellulose) (HPC)",128 % of control
same,T/C,"dose: 1.0 mg/kg/injection, schedule: Q01DX005 (ip), vehicle: Klucel (hydroxypropylcellulose) (HPC)",125 and 127 % of control
same,T/C,"dose: 2.0 mg/kg/injection, schedule: Q01DX005 (ip), vehicle: Klucel (hydroxypropylcellulose) (HPC)",131 and 132 % of control
same,T/C,"dose: 4.0 mg/kg/injection, schedule: Q01DX005 (ip), vehicle: Klucel (hydroxypropylcellulose) (HPC)",137 [5 of 6 alive] and 145 % of control
same,T/C,"dose: 8.0 mg/kg/injection, schedule: Q01DX005 (ip), vehicle: Klucel (hydroxypropylcellulose) (HPC)",149 % of control
CCOC(=O)C(Cc1ccc(N(CCCl)CCCl)cc1)NC(=O)C(C)NC(C)=O (stereo unspecified),T/C,"dose: 20.0 mg/kg/injection, schedule: Q04DX003 (ip), vehicle: water",127 and 128 % of control
same,T/C,"dose: 40.0 mg/kg/injection, schedule: Q04DX003 (ip), vehicle: water",136 % of control
CCOc1ccc(/C=N/NC(=O)C(=O)N/N=C/c2ccc(OCC)c(OCC)c2)cc1OCC,T/C,"dose: 12.5 mg/kg/injection, schedule: Q01DX005 (ip), vehicle: Klucel (hydroxypropylcellulose) (HPC), evaluated on day 20",92 and 126 % of control
same,T/C,"dose: 12.5 mg/kg/injection, schedule: Q01DX005 (ip), vehicle: Klucel (hydroxypropylcellulose) (HPC), evaluated on day 30",86 and 94 % of control
same,T/C,"dose: 25.0 mg/kg/injection, schedule: Q01DX005 (ip), vehicle: Klucel (hydroxypropylcellulose) (HPC), evaluated on day 20",137 % of control
same,T/C,"dose: 25.0 mg/kg/injection, schedule: Q01DX005 (ip), vehicle: Klucel (hydroxypropylcellulose) (HPC), evaluated on day 30",87 and 88 % of control
same,survivor count,[3],6 of 6
same,T/C,"dose: 50.0 mg/kg/injection, schedule: Q01DX005 (ip), vehicle: Klucel (hydroxypropylcellulose) (HPC), evaluated on day 20",91 and 135 % of control
same,T/C,"dose: 50.0 mg/kg/injection, schedule: Q01DX005 (ip), vehicle: Klucel (hydroxypropylcellulose) (HPC), evaluated on day 30",86 % of control
same,survivor count,[4],6 of 6
same,survivor count,"dose: 100.0 mg/kg/injection, schedule: Q01DX009 (ip), vehicle: Klucel (hydroxypropylcellulose) (HPC)",6 of 6
Cc1ccc(S(=O)(=O)OC2CCC3(C)C(CCC4C3CCC3(C)C(C(C)CCCC(C)C)CCC43)C2)cc1 (stereo unspecified),survivor count,"dose: 12.0 mg/kg/injection, schedule: Q01DX005 (ip), vehicle: Klucel (hydroxypropylcellulose) (HPC)",4 of 6
same,survivor count,[3],2 of 6
same,survivor count,[4],0 of 6
ClCCc1nc(C(Cl)(Cl)Cl)nc(C(Cl)(Cl)Cl)n1,survivor count,"dose: 100.0 mg/kg/injection, schedule: Q04DX002 (ip), vehicle: Klucel (hydroxypropylcellulose) (HPC)",0 of 6
same,survivor count,"dose: 200.0 mg/kg/injection, schedule: Q04DX002 (ip), vehicle: Klucel (hydroxypropylcellulose) (HPC)",0 of 6
same,survivor count,"dose: 400.0 mg/kg/injection, schedule: Q04DX002 (ip), vehicle: Klucel (hydroxypropylcellulose) (HPC)",0 of 6
Cc1noc(NC(=O)Nc2ccccc2F)c1C#N,survivor count,[5],5 of 5
N#CC(C#N)=C1Cc2ccccc2C1,survivor count,"dose: 100.0 mg/kg/injection, schedule: Q01DX001 (ip), vehicle: saline with Tween-80",2 of 6
O=C(Cn1nnc2ccccc21)N1CCN(c2ccccc2)CC1,survivor count,"dose: 240.0 mg/kg/injection, schedule: Q01DX005 (ip), vehicle: saline with Tween-80",6 of 6
C(=N\Nc1ccccn1)/c1ccccn1.C(=N\Nc1ccccn1)/c1ccccn1.[Cl-].[Fe+3],survivor count,[2],0 of 6
Cc1cc(-c2ccc(N3C(=O)CC4(CCCCC4)C3=O)c(C)c2)ccc1N1C(=O)CC2(CCCCC2)C1=O,survivor count,"dose: 400.0 mg/kg/injection, schedule: Q04DX003 (ip), vehicle: Klucel (hydroxypropylcellulose) (HPC)",6 of 6
Oc1cccc([C@@]23CCCC[C@H]2CN(CC2CC2)CC3)c1,survivor count,[5],0 of 6
CC(C)(C)c1cc2c3c(c1)C(C(F)(F)F)(C(F)(F)F)OS3(O)OC2(C(F)(F)F)C(F)(F)F,survivor count,"dose: 50.0 mg/kg/injection, schedule: Q01DX005 (ip), vehicle: suspension in saline",3 of 6
same,survivor count,"dose: 100.0 mg/kg/injection, schedule: Q01DX005 (ip), vehicle: suspension in saline",0 of 6
Cc1cc2nc3[nH]c4ccccc4c3nc2cc1C,survivor count,"dose: 400.0 mg/kg/injection, schedule: Q01DX009 (ip), vehicle: suspension in saline",5 of 6
O=C(c1ccc(Cl)cc1)c1cc2c(ccc3ccccc32)oc1=O,survivor count,"dose: 50.0 mg/kg/injection, schedule: Q01DX009 (ip), vehicle: saline with Tween-80",6 of 6
same,survivor count,"dose: 100.0 mg/kg/injection, schedule: Q01DX009 (ip), vehicle: saline with Tween-80",6 of 6
same,survivor count,"dose: 200.0 mg/kg/injection, schedule: Q01DX009 (ip), vehicle: saline with Tween-80",6 of 6
CC(C)(C(=O)O)C(C)(C)C(=O)O,survivor count,"dose: 6.25 mg/kg/injection, schedule: Q01DX001 (ip), vehicle: saline",3 of 6
